# Laboratory results from PubChem BioAssay AID252 (DTP/NCI, 2004).
# The list shows only some results of the screen, not a fair sample: it gathers tests that were run many times, whatever their T/C, doses with no T/C, and many T/C values between a quarter and a half above the control. Further doses and runs are listed elsewhere. T/C: endpoint of the treated group in % of that of the vehicle group. Some entries give survivors of the animals treated and no T/C: the source files T/C as zero there, which appears to mark a toxic dose or a test without result, not a measured value. Some doses without a T/C left all or most animals alive at the check, yet need not have been tolerated: survival well below the control is almost never listed, so the zero probably covers shortened survival too. Survivors were counted at the toxicity check, usually on the fifth day, unless a day is given; later deaths do not show. Schedules are NCI's codes, read here as Q, the interval in days (D) or hours (H), X, the number of doses. Where survival is the endpoint, the PubChem record calls one and a half times the control and up active, and a quarter to a half above the control has no call in these data; cut-offs in other NCI protocols can differ. Some doses were run more than once; their values stand side by side, smallest first. Some T/C values carry the count of animals alive at the toxicity check (mostly the fifth day); where none is given, no animal had died by that day.
# System: BDF1 mice, intracerebral L1210 leukemia, survival T/C
# Assay: NCI In Vivo Anticancer Drug Screen. Data for tumor model L1210 Leukemia (intracerebral) in B6D2F1 (BDF1) mice
# Details: higher T/C = longer survival
# Method in brief: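 Readout is the T/C ratio: survival of compound-treated animals over that of vehicle-treated controls, in mice bearing transplantable tumour.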
smiles,measurement,setting,value
CC(CN1CC(=O)NC(=O)C1)N1CC(=O)NC(=O)C1 (stereo not drawn),T/C,"T/C endpoint: mean survival time, dose: 3.12 mg/kg/injection, schedule: Q03HX024 (ip), vehicle: steroid suspending solution, evaluated on day 33",125 % of control
same,T/C,"T/C endpoint: mean survival time, dose: 3.12 mg/kg/injection, schedule: Q03HX024 (ip), vehicle: steroid suspending solution, evaluated on day 40",131 % of control
same,T/C,"T/C endpoint: mean survival time, dose: 6.25 mg/kg/injection, schedule: Q03HX024 (ip), vehicle: steroid suspending solution, evaluated on day 21",128 % of control
same,T/C,"T/C endpoint: mean survival time, dose: 6.25 mg/kg/injection, schedule: Q03HX024 (ip), vehicle: steroid suspending solution, evaluated on day 33",133 % of control
same,T/C,"T/C endpoint: mean survival time, dose: 6.25 mg/kg/injection, schedule: Q03HX024 (ip), vehicle: steroid suspending solution, evaluated on day 40",143 % of control
same,T/C,"T/C endpoint: mean survival time, dose: 25.0 mg/kg/injection, schedule: Q01DX009 (ip), vehicle: steroid suspending solution",132 % of control
same,survivor count,"T/C endpoint: mean survival time, dose: 25.0 mg/kg/injection, schedule: Q03HX024 (ip), vehicle: steroid suspending solution",5 of 8
same,T/C,"T/C endpoint: mean survival time, dose: 50.0 mg/kg/injection, schedule: Q01DX009 (ip), vehicle: steroid suspending solution",142 % of control
same,T/C,"T/C endpoint: mean survival time, dose: 100.0 mg/kg/injection, schedule: Q01DX001 (ip), vehicle: steroid suspending solution",128 % of control
same,T/C,"T/C endpoint: mean survival time, dose: 100.0 mg/kg/injection, schedule: Q04DX003 (ip), vehicle: steroid suspending solution, evaluated on day 19",128 % of control
same,T/C,"T/C endpoint: mean survival time, dose: 100.0 mg/kg/injection, schedule: Q04DX003 (ip), vehicle: steroid suspending solution, evaluated on day 21",124 % of control
same,T/C,"T/C endpoint: mean survival time, dose: 100.0 mg/kg/injection, schedule: Q04DX003 (ip), vehicle: steroid suspending solution, evaluated on day 33",124 % of control
same,T/C,"T/C endpoint: mean survival time, dose: 100.0 mg/kg/injection, schedule: Q04DX003 (ip), vehicle: steroid suspending solution, evaluated on day 40",119 % of control
same,T/C,"T/C endpoint: mean survival time, dose: 108.0 mg/kg/injection, schedule: Q04DX003 (ip), vehicle: other",134 % of control
same,T/C,"T/C endpoint: mean survival time, dose: 108.0 mg/kg/injection, schedule: Q04DX003 (ip), vehicle: steroid suspending solution, evaluated on day 27",127 % of control
same,T/C,"T/C endpoint: mean survival time, dose: 108.0 mg/kg/injection, schedule: Q04DX003 (ip), vehicle: steroid suspending solution, evaluated on day 45",134 % of control
same,T/C,"T/C endpoint: mean survival time, dose: 180.0 mg/kg/injection, schedule: Q04DX003 (ip), vehicle: Klucel (hydroxypropylcellulose) (HPC), evaluated on day 7",143 % of control
same,T/C,"T/C endpoint: mean survival time, dose: 180.0 mg/kg/injection, schedule: Q04DX003 (ip), vehicle: Klucel (hydroxypropylcellulose) (HPC), evaluated on day 30",143 % of control
same,T/C,"T/C endpoint: mean survival time, dose: 180.0 mg/kg/injection, schedule: Q04DX003 (ip), vehicle: other",144 % of control
same,T/C,"T/C endpoint: mean survival time, dose: 180.0 mg/kg/injection, schedule: Q04DX003 (ip), vehicle: steroid suspending solution",143 % of control
same,T/C,"T/C endpoint: mean survival time, dose: 200.0 mg/kg/injection, schedule: Q04DX003 (ip), vehicle: steroid suspending solution, evaluated on day 19",156 % of control
same,T/C,"T/C endpoint: mean survival time, dose: 200.0 mg/kg/injection, schedule: Q04DX003 (ip), vehicle: steroid suspending solution, evaluated on day 21",141 % of control
same,T/C,"T/C endpoint: mean survival time, dose: 200.0 mg/kg/injection, schedule: Q04DX003 (ip), vehicle: steroid suspending solution, evaluated on day 33",141 % of control
same,T/C,"T/C endpoint: mean survival time, dose: 200.0 mg/kg/injection, schedule: Q04DX003 (ip), vehicle: steroid suspending solution, evaluated on day 40",139 % of control
same,T/C,"T/C endpoint: mean survival time, dose: 300.0 mg/kg/injection, schedule: Q04DX003 (ip), vehicle: Klucel (hydroxypropylcellulose) (HPC), evaluated on day 7",149 % of control
same,T/C,"T/C endpoint: mean survival time, dose: 300.0 mg/kg/injection, schedule: Q04DX003 (ip), vehicle: Klucel (hydroxypropylcellulose) (HPC), evaluated on day 30",149 % of control
same,T/C,"T/C endpoint: mean survival time, dose: 400.0 mg/kg/injection, schedule: Q04DX003 (ip), vehicle: steroid suspending solution, evaluated on day 19",172 % of control
same,T/C,"T/C endpoint: mean survival time, dose: 400.0 mg/kg/injection, schedule: Q04DX003 (ip), vehicle: steroid suspending solution, evaluated on day 21",145 % of control
same,T/C,"T/C endpoint: mean survival time, dose: 400.0 mg/kg/injection, schedule: Q04DX003 (ip), vehicle: steroid suspending solution, evaluated on day 33",153 % of control
same,T/C,"T/C endpoint: mean survival time, dose: 400.0 mg/kg/injection, schedule: Q04DX003 (ip), vehicle: steroid suspending solution, evaluated on day 40",164 % of control
same,T/C,"T/C endpoint: mean survival time, dose: 500.0 mg/kg/injection, schedule: Q04DX003 (ip), vehicle: Klucel (hydroxypropylcellulose) (HPC), evaluated on day 7",127 % of control
same,T/C,"T/C endpoint: mean survival time, dose: 500.0 mg/kg/injection, schedule: Q04DX003 (ip), vehicle: Klucel (hydroxypropylcellulose) (HPC), evaluated on day 30",127 % of control
same,T/C,"T/C endpoint: mean survival time, dose: 500.0 mg/kg/injection, schedule: Q04DX003 (ip), vehicle: other",132 % of control
same,T/C,"T/C endpoint: mean survival time, dose: 500.0 mg/kg/injection, schedule: Q04DX003 (ip), vehicle: steroid suspending solution",131 % of control
same,survivor count,"T/C endpoint: mean survival time, dose: 800.0 mg/kg/injection, schedule: Q01DX001 (ip), vehicle: steroid suspending solution",8 of 8
same,T/C,"T/C endpoint: median survival time, dose: 8.0 mg/kg/injection, schedule: Q01DX009 (ip), vehicle: Klucel (hydroxypropylcellulose) (HPC)",125 % of control
same,T/C,"T/C endpoint: median survival time, dose: 16.0 mg/kg/injection, schedule: Q01DX009 (ip), vehicle: Klucel (hydroxypropylcellulose) (HPC), evaluated on day 30",130 % of control
same,T/C,"T/C endpoint: median survival time, dose: 16.0 mg/kg/injection, schedule: Q01DX009 (ip), vehicle: Klucel (hydroxypropylcellulose) (HPC), evaluated on day 31",130 % of control
same,T/C,"T/C endpoint: median survival time, dose: 32.0 mg/kg/injection, schedule: Q01DX009 (ip), vehicle: Klucel (hydroxypropylcellulose) (HPC), evaluated on day 30",143 % of control [9 of 10 alive]
same,T/C,"T/C endpoint: median survival time, dose: 32.0 mg/kg/injection, schedule: Q01DX009 (ip), vehicle: Klucel (hydroxypropylcellulose) (HPC), evaluated on day 31",130 % of control
same,T/C,"T/C endpoint: median survival time, dose: 32.0 mg/kg/injection, schedule: Q01DX009 (ip), vehicle: Klucel (hydroxypropylcellulose) (HPC), evaluated on day 36",126 % of control
same,T/C,"T/C endpoint: median survival time, dose: 64.0 mg/kg/injection, schedule: Q01DX009 (ip), vehicle: Klucel (hydroxypropylcellulose) (HPC), evaluated on day 30",131 % of control
same,T/C,"T/C endpoint: median survival time, dose: 64.0 mg/kg/injection, schedule: Q01DX009 (ip), vehicle: Klucel (hydroxypropylcellulose) (HPC), evaluated on day 31",145 % of control
same,T/C,"T/C endpoint: median survival time, dose: 180.0 mg/kg/injection, schedule: Q04DX003 (ip), vehicle: Klucel (hydroxypropylcellulose) (HPC), evaluated on day 5",96 and 119 % of control
same,T/C,"T/C endpoint: median survival time, dose: 180.0 mg/kg/injection, schedule: Q04DX003 (ip), vehicle: Klucel (hydroxypropylcellulose) (HPC), evaluated on day 24",119 % of control
same,T/C,"T/C endpoint: median survival time, dose: 180.0 mg/kg/injection, schedule: Q04DX003 (ip), vehicle: Klucel (hydroxypropylcellulose) (HPC), evaluated on day 26",96 % of control
same,T/C,"T/C endpoint: median survival time, dose: 300.0 mg/kg/injection, schedule: Q04DX003 (ip), vehicle: Klucel (hydroxypropylcellulose) (HPC), evaluated on day 5",117 and 130 % of control
same,T/C,"T/C endpoint: median survival time, dose: 300.0 mg/kg/injection, schedule: Q04DX003 (ip), vehicle: Klucel (hydroxypropylcellulose) (HPC), evaluated on day 24",130 % of control
same,T/C,"T/C endpoint: median survival time, dose: 300.0 mg/kg/injection, schedule: Q04DX003 (ip), vehicle: Klucel (hydroxypropylcellulose) (HPC), evaluated on day 26",117 % of control
same,T/C,"T/C endpoint: median survival time, dose: 500.0 mg/kg/injection, schedule: Q04DX003 (ip), vehicle: Klucel (hydroxypropylcellulose) (HPC), evaluated on day 5",138 and 143 % of control
same,T/C,"T/C endpoint: median survival time, dose: 500.0 mg/kg/injection, schedule: Q04DX003 (ip), vehicle: Klucel (hydroxypropylcellulose) (HPC), evaluated on day 24",138 % of control
same,T/C,"T/C endpoint: median survival time, dose: 500.0 mg/kg/injection, schedule: Q04DX003 (ip), vehicle: Klucel (hydroxypropylcellulose) (HPC), evaluated on day 26",143 % of control
same,T/C,"T/C endpoint: median survival time, dose: 833.0 mg/kg/injection, schedule: Q04DX003 (ip), vehicle: Klucel (hydroxypropylcellulose) (HPC), evaluated on day 5",107 and 116 % of control
same,T/C,"T/C endpoint: median survival time, dose: 833.0 mg/kg/injection, schedule: Q04DX003 (ip), vehicle: Klucel (hydroxypropylcellulose) (HPC), evaluated on day 24",116 % of control
same,T/C,"T/C endpoint: median survival time, dose: 833.0 mg/kg/injection, schedule: Q04DX003 (ip), vehicle: Klucel (hydroxypropylcellulose) (HPC), evaluated on day 26",107 % of control
CCCC(=O)NC1=C(N2CC2)C(=O)C(NC(=O)CCC)=C(N2CC2)C1=O,T/C,"T/C endpoint: mean survival time, dose: 2.0 mg/kg/injection, schedule: Q01DX009 (ip), vehicle: saline",131 % of control
CN(N=O)C(=O)NCCSc1ncnc2nc[nH]c12,T/C,"T/C endpoint: mean survival time, dose: 750.0 mg/kg/injection, schedule: Q01DX001 (ip), vehicle: carboxymethylcellulose (CMC)",129 % of control [8 of 10 alive]
same,survivor count,"T/C endpoint: mean survival time, dose: 1000.0 mg/kg/injection, schedule: Q01DX001 (ip), vehicle: carboxymethylcellulose (CMC)",2 of 10
N[C@H](C(=O)O)[C@@H]1CC(Cl)=NO1,T/C,"T/C endpoint: mean survival time, dose: 4.0 mg/kg/injection, schedule: Q01DX009 (ip), vehicle: saline",126 % of control
same,T/C,"T/C endpoint: mean survival time, dose: 8.0 mg/kg/injection, schedule: Q01DX009 (ip), vehicle: saline",129 % of control [7 of 8 alive]
same,T/C,"T/C endpoint: median survival time, dose: 2.0 mg/kg/injection, schedule: Q01DX009 (ip), vehicle: saline",135 % of control [7 of 8 alive]
same,T/C,"T/C endpoint: median survival time, dose: 16.0 mg/kg/injection, schedule: Q01DX009 (ip), vehicle: saline",127 % of control
O=c1[nH]cc(N(CCCl)CCCl)c(=O)[nH]1,T/C,"T/C endpoint: mean survival time, dose: 1.7 mg/kg/injection, schedule: Q01DX015 (ip), vehicle: carboxymethylcellulose (CMC)",127 % of control
